Laboratory results: PubChem BioAssay AID2417 (National Center for Advancing Translational Sciences (NCATS), 2010)
In all, about 140,000 compounds went through this assay and about 4,300 (3.1%) were called active. The inconclusive results got no clear call from the source; some entries with a clear call stand among them for comparison.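 The calls were made as follows: active = readout at or below -70, meaning at least 70% loss of cells showing the perinucleolar compartment, a nuclear body marking cancer cells; inconclusive = readout between -30 and a set limit; inactive = the rest.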

Test: High Content Assay for Compounds that inhibit the Assembly of the Perinucleolar Compartment;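 also: plate controls were DMSO wells for no effect and camptothecin positive control wells for full effect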
Conditions: PC3M PTB-GFP, PNC prevalence imaging, 16 h; at 10 µM; hits give low values
Summary of the method: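 Compounds are pinned in duplicate onto adhered PC3M cells stably expressing GFP-tagged PTB and incubated 16 h at 37 C. Cells are then fixed, nuclei stained with Hoechst, and PNC-positive cells counted.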

| Compound | activity change (PNC), negative = inhibition |
| --- | --- |
| CC1CCN(C(=S)NCCc2ccccc2)CC1 | inactive: 17% |
| CCOC(=O)c1cc2[nH]c3ccccc3c2[n+](-c2ccc([N+](=O)[O-])cc2)c1C | inconclusive: -43.2% |
| Cc1nn(-c2ccccc2)c(N)c1N=Nc1ccc(Cl)cc1 | active: -92.7% |
| O=C(COc1ccccc1)Nc1ccc(Cl)c(-c2nc3ncccc3o2)c1 | inactive: 16.1% |
| Cc1ccccc1C(=O)NNC(=O)C(=O)N1CCCCC1 | inactive: 2.98% |
| CC(C)(C)Nc1nc(N2CCCC2)nc(N2CCCC2)n1 | inconclusive: -30.5% |
| Cc1ccc(NC(=O)c2cn(CCC#N)nc2-c2cccs2)c([N+](=O)[O-])c1 | active: -112% |
| Cc1ccc(C2(C)NC(=O)N(CC(=O)Nc3c(C)n(C)n(-c4ccccc4)c3=O)C2=O)cc1 (stereo unspecified) | inconclusive: -56.6% |
| CCCOc1ccc(C(=O)C(CCC(CNCC)C(=O)c2ccc(OCCC)cc2)CNCC)cc1 (stereo unspecified) | inconclusive: -38.2% |
| CCOC(=O)CSC1=N/C(=C\c2cc(OC)c(OC)c(OC)c2)C(=O)N1C | inconclusive: -46.2% |
| CC(C)(C)c1ccccc1OCCCCN1CCCC1 | inconclusive: -33.8% |
| Cc1ccc(C)c(Nc2nc3nonc3nc2N2CCOCC2)c1 | inconclusive: -32.4% |
| CC1CCC(C(C)C)C(OCC(O)CN2CCN(Cc3ccccc3)CC2)C1 (stereo unspecified) | inactive: -2.39% |
| N#Cc1c(-c2ccccc2)nc(SCc2nc(N)nc(N3CCCCC3)n2)[nH]c1=O | inactive: -4.36% |
| CCOc1cccc(/C=N/Nc2ccc(S(=O)(=O)N(CC)CC)cn2)c1O | inactive: 62.8% |
| Cc1cc(C)n(C(=O)c2ccc(Cn3nc(C)c(Br)c3C)o2)n1 | active: -100% |
| Cc1ccc(C(C(=O)NC2CCCCC2)N(C(=O)CCCC(=O)Nc2ccccn2)c2ccc3c(c2)OCCO3)cc1 (stereo unspecified) | inconclusive: -43.1% |
| Cc1ccc(S(=O)(=O)NCC(c2ccccc2)N2CCN(CCC#N)CC2)cc1 (stereo unspecified) | inconclusive: -56.2% |
| CC1(C)COC(c2cc([N+](=O)[O-])ccc2Cl)=N1 | inactive: 7.84% |
| O=C(NCc1nnc(SCC(=O)N2CCCC2)o1)c1c(F)cccc1Cl | inactive: 28.1% |
| N#CC1=C(N)N2C(=C(C#N)C1c1ccc(Br)cc1)Nc1ccccc12 (stereo unspecified) | inconclusive: -61.1% |
| COc1ccc(-c2nn(C)c(=O)c3ccccc23)cc1NC(=O)Cn1nc(C)c2ccccc2c1=O | inconclusive: -38.6% |
| CCOCc1nc(C)c(Cl)c(NS(=O)(=O)c2ccc(N)cc2)n1 | inconclusive: -43.9% |

Reprinted at random: 3 compounds from above.

| Compound | activity change (PNC), negative = inhibition |
| --- | --- |
| CCOC(=O)c1cc2[nH]c3ccccc3c2[n+](-c2ccc([N+](=O)[O-])cc2)c1C | inconclusive: -43.2% |
| CC1(C)COC(c2cc([N+](=O)[O-])ccc2Cl)=N1 | inactive: 7.84% |
| CCCOc1ccc(C(=O)C(CCC(CNCC)C(=O)c2ccc(OCCC)cc2)CNCC)cc1 (stereo unspecified) | inconclusive: -38.2% |

The results go on:

| Compound | activity change (PNC), negative = inhibition |
| --- | --- |
| C=CCN=C(NC#N)SCc1ccccc1Cl | inactive: 15.9% |
| CCOc1ccccc1NC(=S)Nc1ccccc1F | inconclusive: -69.9% |
| Cc1ccc(C(C)C)c(OCCCN2CC(C)OC(C)C2)c1 (stereo unspecified) | inconclusive: -44.8% |
| Cc1sc2nc(C)n(/N=C/c3ccccc3)c(=O)c2c1C | inconclusive: -43.4% |
| Cn1ccnc1C(O)(c1nnc(-c2ccccc2)o1)C(F)(F)F (stereo unspecified) | inconclusive: -63% |
| CC(C)c1ccc(C2NC(=O)NC3=C2CCc2ccccc23)cc1 (stereo unspecified) | inactive: 5.05% |
| CCOC(=O)c1c(NC(=O)COC)sc(C)c1C | inactive: 101% |
| C=CCSC1=C(C#N)C(c2ccc(OCC)cc2)CC(=O)N1 (stereo unspecified) | inactive: 2.97% |
| COc1ccc(S(=O)(=O)Nc2ccccc2C(=O)NC(C)C)cc1OC | active: -124% |
| O=C(NCCc1ccccc1)C1CCN(C(=O)c2sccc2-n2cccc2)CC1 | inconclusive: -40.8% |
| CC(C)Nc1nnc(SCC(=O)Nc2ccc3c(c2)C(=O)c2ccccc2C3=O)s1 | inconclusive: -69.9% |
| CC1(C)CC(=O)C2=C(C1)NC(=O)CC2c1ccc(N(CCC#N)CCC#N)cc1 (stereo unspecified) | inconclusive: -62.5% |
| Cc1cc(C)n(CC(=O)c2ccc(Br)cc2)c(=O)c1C#N | inconclusive: -72.6% |
| CCOC(=O)c1c(-c2cccc3ccccc23)csc1NC(=O)C1C2CCC(O2)C1C(=O)O (stereo unspecified) | inactive: -3.95% |
| CC(=O)Nc1cc(C)c(S(C)(=O)=O)c(C)c1 | inactive: -11.4% |
| CCOC(=O)C1CCN(S(=O)(=O)Cc2ccc(Cl)cc2)CC1 | inconclusive: -60.4% |
| Clc1ccc2oc(-c3cccnc3NCc3ccccc3)nc2c1 | inconclusive: -40.4% |
| Cc1cc(C(=O)CSc2nc3ccccc3o2)c(C)n1CC1CCCO1 (stereo unspecified) | inconclusive: -49.5% |
| O=C(NCCO)c1ccc(Cl)c(Cl)c1 | inconclusive: -48.6% |
| Cc1ccc2occ(C3NC(C(=O)O)CS3)c(=O)c2c1 (stereo unspecified) | inconclusive: -30.9% |
| Cc1ccc(S(=O)(=O)N2CCN(c3ccc([N+](=O)[O-])c(NCCN4CCOCC4)c3)CC2)cc1 | active: -83% |
| CCCn1c(CN2CCCCC2C)nc2c1c(=O)n(C)c(=O)n2C (stereo unspecified) | active: -95.1% |
| Cc1c(S(=O)(=O)N2CCN(c3cccc(C(F)(F)F)c3)CC2)c(=O)n(C)c(=O)n1C | inconclusive: -43.3% |
